Some of the results follow. The main result of the screen is listed elsewhere. These columns were measured beside it and carry no call. Compounds called inactive in the main read-out are mostly missing here. Words in brackets tell the shape of the fitted curve; partial curves, single points and poor fits give uncertain potencies.

Usually AC50 stands for the midpoint of the concentration-response curve, whichever way the signal moves.

A short description of the assay: qHTS Assay to Find Inhibitors of Chronic Active B-Cell Receptor Signaling. As to conditions: ABC-DLBCL IkBa-CBG/CBR reporter, luminescence ratio (green luciferase fused to IkBa over red control in TMD8 lymphoma cells), 4 h. In outline:
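Compounds up to 46 uM were incubated four hours with TMD8 cells whose green CBG68 luciferase is fused to IkappaBalpha; red CBR luminescence normalised the signal, and concentration-effect curves were fitted to fusion, red and ratio data.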
On the technique in general: qHTS replaces the single test concentration by a dilution series.

[1] abbreviates: measured here: CBR red luminescence, cell number.
[2] abbreviates: measured here: IkBa-CBG green luminescence.

Consider `Cc1ccc(-c2nnn(CCOc3cccc(Br)c3)n2)cc1`, for which the AC50 under setting [1] was 16.4 µM [rising, single point]. The same measure, in the same setting: the result for `CCCC1(C(=O)O)NC(c2ccccc2O)C2C(=O)N(Cc3ccccc3)C(=O)C21` (stereo unspecified) reads 6.51 µM [falling, full curve, poor fit]. On the same count and under the same terms, the result for `Cc1cc(C)c(C(=O)COc2cccnc2[N+](=O)[O-])cc1C` reads 29.1 µM [falling, partial curve, poor fit]; that for `Cc1[nH]n(-c2ccccc2)c(=O)c1N=Nc1ccccc1C(=O)O`, 12.6 µM [falling, partial curve]; that for `O=C(CCC1N=C2c3ccccc3N=C(SCc3ccc(F)cc3)N2C1=O)NC1CCCCC1` (stereo unspecified), 3.16 µM [rising, partial curve, poor fit]. Still for that read-out and setting: the result for `CCOC(=O)CSc1nnc(Cn2nnc3ccccc32)n1-c1ccc(F)cc1` reads 3.98 µM [falling, single point]; that for `CCCOC(=O)c1ccc(O)cc1`, 23.1 µM [rising, partial curve, poor fit]; that for `O=C(Nc1ccc2c(c1)nc1n2CCSC1)c1ccco1`, 7.08 µM [falling, partial curve]. For the compound `CCOC(=O)c1ccc(NC(=O)c2ccc(C)c(S(=O)(=O)N3CCOCC3)c2)cc1`, under setting [1], the AC50 was 25.9 µM [falling, single point]. On the same count and under the same terms, the result for `CS(=O)(=O)c1ccc(Cl)c(NC(=O)C2CC(=O)N(Cc3ccccc3)C2)c1` (stereo unspecified) reads 20.6 µM [falling, single point]. With `CCN1/C(=C/c2ccc3cc(C)ccc3[n+]2CC)Sc2cc(C)ccc21`, the AC50 under setting [2] was 12.6 µM [rising, partial curve, poor fit]. `CCCCCOc1ccc(C(=O)NCC(=O)NCC(=O)OCC)cc1`: the AC50 under setting [1] was 12.6 µM [rising, single point]. The same measure, in the same setting: the result for `O=C(Nc1ccccn1)c1ccc(Cl)c(S(=O)(=O)N2CCCC2)c1` reads 16.4 µM [falling, single point]. Take `CCn1c(CNc2cccc(Cl)c2)nnc1SCc1ccccc1`: under setting [1], the AC50 was 12.6 µM [falling, single point]. Still for that read-out and setting: the result for `COc1ccc(-c2csc(Nc3ccccn3)n2)cc1` reads 10 µM [falling, partial curve]. The same measure, in the same setting: the figure for `c1cncc(CNc2cccc(-c3nc4ccccc4[nH]3)c2)c1` is 7.31 µM [falling, partial curve, poor fit]. The same measure, in the same setting: the figure for `CO/N=C/C(C#N)=C/c1cc(C(=O)c2ccc(F)cc2)cn1C` is 35.5 µM [rising, single point]. Take `COc1ccc(C(=O)NC(=S)NNC(=O)c2c(-c3ccccc3)noc2C)cc1OC`: the half-maximal activity concentration (AC50) under setting [1] was 0.398 µM [rising, full curve, poor fit]. Still for that read-out and setting: the result for `CCN1CCCC1CNC(=O)C(=O)Nc1cccc(OC)c1` (stereo unspecified) reads 29.1 µM [falling, single point]. Regarding `COc1cc(/C=N/Nc2ccc(S(N)(=O)=O)cc2)cc(OC)c1OC`, the AC50 under setting [2] is 15.8 µM [falling, single point]. With `CCOC(=O)c1ccc(NC(=O)c2nn(CC)cc2Br)cc1`, the AC50 under setting [1] is 23.1 µM [falling, single point]. For the compound `C=C(CCC(=O)c1ccccc1)C(=O)c1ccccc1`, the concentration at half-maximal activity (AC50) runs as follows: under setting [1], 11.6 µM [falling, partial curve]; under setting [2], 13 µM [rising, partial curve, poor fit]. `COc1ccc(C(=O)CSc2nnc(C3CC3)n2N)cc1`: the concentration at half-maximal activity (AC50) under setting [1] is 3.26 µM [rising, full curve, poor fit].

As for `Cc1ccc(N=Nc2c(N)n(-c3ccccc3)[nH]c2=O)cc1`, the AC50 under setting [1] is 2.24 µM [falling, full curve]. For `O=C(COC(=O)c1cc(S(=O)(=O)N2CCOCC2)ccc1F)Nc1ccc(Cl)cn1`, under setting [1], the AC50 is 29.1 µM [falling, partial curve, poor fit]. The same measure, in the same setting: the figure for `O=C(O)c1cccc(N/N=C/c2ccc(OC(F)(F)F)cc2)c1` is 20 µM [falling, partial curve, poor fit]; for `CCOC(=O)c1sc(NC(=O)c2ccc(Cl)s2)cc1C` it is 0.058 µM [falling, full curve]; for `COc1ccc(/C(O)=C2/C(=O)C(=O)N(CCCC(=O)O)C2c2ccc(OC)c(OC)c2)cc1` (stereo unspecified) it is 8.91 µM [falling, partial curve, poor fit]. In the case of `Nc1nc(SCC(=O)N2CCN(c3ccc(F)cc3)CC2)n[nH]1`, the AC50 runs as follows: under setting [1], 29.1 µM [rising, single point]; under setting [2], 20.6 µM [falling, partial curve, poor fit].

As to `CC1=Nc2ccc(C)cc2/C1=C/c1c(N)n2oc(C)cc2nc1=O`, under setting [1], the concentration at half-maximal activity (AC50) is 3.16 µM [falling, full curve]. With `Oc1cc2ccccc2cc1-c1n[nH]c(=S)o1`, the AC50 under setting [1] is 22.4 µM [falling, single point].

Consider `Cc1nn(-c2ccccc2)c(C)c1C(=O)OCC(=O)N1CC(=O)Nc2ccccc21`, for which the AC50 under setting [1] is 20 µM [falling, single point].

Turning to `CCCCCCC[C@@H](C/C=C/CCC(=O)N(C)C/C(=C/Cl)C/C(=C\C(=O)N1C[C@H](O)CC1=O)OC)OC`, the AC50 under setting [1] is 18.4 µM [falling, single point]. Still for that read-out and setting: the result for `CC(=O)C(C)Oc1ccc2c3c(c(=O)oc2c1)CCCC3` (stereo unspecified) reads 6.31 µM [rising, partial curve, poor fit]. `O=C(Nc1ccccc1C(=O)N/N=C/c1ccncc1)c1ccccc1`: the half-maximal activity concentration (AC50) under setting [1] was 7.08 µM [falling, partial curve]. On the same count and under the same terms, the result for `CC(=O)c1cccc(NS(=O)(=O)c2ccc(N/C=C/C(=O)c3ccc(F)cc3)cc2)c1` reads 11.6 µM [falling, partial curve, poor fit]; that for `O=C(O)c1ccc2c(c1)C(=O)N(c1cccc(-c3nc4ccccc4s3)c1)C2=O`, 8.91 µM [rising, partial curve]. On the same count and under the same terms, the figure for `Cc1ccc(OCc2cc(C(=O)N(C)CCc3nc4ccccc4[nH]3)no2)cc1C` is 11.2 µM [falling, partial curve, poor fit]; for `O=C(Nc1c(F)cccc1F)c1ccc(-n2cncn2)nc1` it is 11.2 µM [falling, partial curve]. On the same count and under the same terms, the figure for `O=C(N/N=C/C1=Cc2ccccc2OC1)c1ccncc1` is 10 µM [falling, partial curve]; for `O=c1[nH]cnc2scc(C3COc4ccccc4O3)c12` (stereo unspecified) it is 28.2 µM [falling, partial curve, poor fit].

`CCOC(=O)N1CCN(C(=O)c2ccccc2N(Cc2ccccc2)S(=O)(=O)c2ccc(OC)cc2)CC1`: under setting [2], the AC50 is 22.4 µM [falling, single point]. In the case of `CCOc1ccc2nc(NC(=O)CN3CCC(n4nnc5cc(F)ccc54)CC3)sc2c1`, the concentration at half-maximal activity (AC50) under setting [1] is 29.1 µM [falling, single point]. For the compound `O=C(Nc1ccc(S(=O)(=O)Nc2nccs2)cc1)c1cc(-c2ccccc2)nc2ccccc12`, the AC50 by setting is: under setting [1], 13 µM [falling, partial curve]; under setting [2], 20.6 µM [rising, partial curve].

On to `COc1cccc(C(=O)Nc2c3c(nn2-c2ccc(Cl)cc2)CS(=O)(=O)C3)c1`, for which, under setting [1], the AC50 was 12.6 µM [falling, single point]. The same measure, in the same setting: the result for `N=c1c2c(n(Cc3ccc(Cl)cc3)c3c1CCC3)CCC2` reads 10 µM [falling, partial curve, poor fit]. Same read-out and setting: the result for `Nc1nc(Nc2ccccc2F)nc(NCc2ccccc2)c1[N+](=O)[O-]` reads 31.6 µM [rising, partial curve, poor fit]; that for `O=S(=O)(Nc1ccncc1Cl)c1ccccc1`, 29.1 µM [falling, single point]; that for `COc1ccc(-c2csc(N(CCCN(C)C)C(=O)c3ccc(C(C)(C)C)cc3)n2)cc1`, 12.6 µM [falling, single point].

Regarding `O=C(CSc1ccc2ccccc2n1)NC1CC1`, the AC50 under setting [1] is 25.9 µM [rising, partial curve, poor fit]. On the same count and under the same terms, the figure for `COc1ccc(C2=NOC(Cn3nc(-c4ccccc4)cc3C(=O)NCc3cccs3)C2)cc1` (stereo unspecified) is 6.51 µM [rising, partial curve, poor fit]; for `C=C1c2ccccc2S(=O)(=O)N(Cc2ccccc2)C1COCc1ccccc1` (stereo unspecified) it is 20 µM [falling, partial curve, poor fit]; for `Cc1cc(Br)ccc1OCC(=O)NNC(=O)C(=O)Nc1ccccc1` it is 35.5 µM [falling, single point]. `Cc1ccc(CNC(=O)CSc2nc3n[nH]c(C)c3c(=N)n2-c2cccc(C)c2)cc1`: the half-maximal activity concentration (AC50) under setting [1] is 6.31 µM [falling, partial curve, poor fit]. In the case of `c1cc2nnnn2nc1N1CCCCCC1`, the half-maximal activity concentration (AC50) under setting [1] was 29.1 µM [rising, single point]. On to `COc1ccc(CCNC(=O)c2cccc(Br)c2)cc1OC`, for which the AC50 under setting [1] was 17.8 µM [falling, partial curve, poor fit]. Still for that read-out and setting: the result for `C/C(N=Nc1nc2ccccc2s1)=N\Nc1ccccc1O` reads 20 µM [rising, single point]; that for `COc1ccc(C(=O)NCC(=O)OCn2nnc3ccccc3c2=O)cc1OC`, 35.5 µM [falling, partial curve, poor fit]. Still for that read-out and setting: the result for `COc1ccc(N(CC(=O)N2CCN(c3ccc(F)cc3)CC2)S(=O)(=O)c2c(C)n[nH]c2C)cc1` reads 0.112 µM [falling, full curve, poor fit]; that for `COc1cc(NC(=S)NC(=O)c2ccc(C)cc2C)ccc1NC(=O)c1cccs1`, 1.46 µM [rising, partial curve, poor fit].

In the case of `Cc1csc(=O)n1CC(=O)OCC(=O)Nc1ccc(F)c(F)c1`, the AC50 under setting [1] is 9.2 µM [rising, partial curve]. In the case of `Cc1ccc(C)c(-n2c(-c3csc(C)c3)n[nH]c2=S)c1`, the AC50 under setting [1] is 29.1 µM [falling, single point]. As for `O=C(NCC1CCCO1)C1CCCN(S(=O)(=O)c2ccc(Cl)cc2)C1` (stereo unspecified), the AC50 under setting [1] was 35.5 µM [falling, single point].

(Values after PubChem BioAssay AID493014 (National Center for Advancing Translational Sciences (NCATS), 2011).)
